Experimental data taken from patent US20040121942A1 (University of California, published 2004).
Positions count from the first letter of the chain named. Names may count otherwise. These are yes or no findings as the source states them, for the method shown. Some entries that bind do so weakly or less than the wild type.

Target: T1, endogenous wild-type PLB of rat cardiac myocytes (rat) (UniProt P61016)
T1 sequence (looked up): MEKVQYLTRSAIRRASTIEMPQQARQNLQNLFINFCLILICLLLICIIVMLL
Test: Western blot of infected myocytes, altered pentamer band pattern

B1: K3E/R14E double point mutation of PLB expressed from a recombinant adenovirus (other)
chain: T1 sequence (looked up) with K3E, R14E, N27K
notes: ID
binding: binds
